Results reported in PubChem BioAssay AID1259415 (National Center for Advancing Translational Sciences (NCATS), 2018).
Several values for one entry are separate records, joined by “and”; a condition that tells them apart may be missing. Identical values can stand only once. Hit rate of the full screen: of about 410,000 compounds, about 18,000 (4.4%) were called active. The shares of active, inactive and inconclusive entries below differ from those in the screen. Rule as the data show it: active = activity change below about -60%; inconclusive = no clear call, values can overlap the other calls; inactive = above about -39%.

experiment: qHTS Assay for inhibitors of the human cytomegalovirus (HCMV); settings: HFF cells, HCMV-luciferase reporter, 72 h; at 57.5 µM; active compounds read low
Summary of the method: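 Two compound doses tested in HFFs infected with HCMV-luciferase, MOI 1 PFU/cell, 72 h at 37C. Lysate luminescence read with OneGlo; data normalized against buffer-only and 10uM Salinomycin inhibitor controls.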
% is scaled to controls: 0 for no effect and ±100 for the full control effect.

| SMILES | activity change, negative = inhibition |
| --- | --- |
| C=CCn1c(=O)/c(=C2/SC(C)=C(C)N2CC)s/c1=C1/C(=O)N(CC)C(=S)N1c1ccccc1 | inconclusive: -54.3% |
| CC1CN=C(N(C(=O)Nc2ccccc2)C(C)c2ccccc2)S1 (stereo not drawn) | inactive: 30% |
| Cc1ccc2c(c1)c1c(n2CC(O)CNC2CCCCC2)CCCC1 (stereo not drawn) | active: -105% |
| c1ccc(C2c3[nH]c4ccccc4c3CCN2Cc2cccn2-c2ccccn2)nc1 (stereo not drawn) | inactive: 9.52% |
| COCCCNS(=O)(=O)c1ccc2[nH]c3c(c2c1)CCCCC3 | inconclusive: -47.4% |
| O=C(c1cccc(S(=O)(=O)Nc2cccc(C(F)(F)F)c2)c1)N1CCCCC1 | inconclusive: -40.7% |
| O=C1NN(c2ccc(Cl)c(Cl)c2)C(=O)/C1=C/c1ccc(-c2ccccc2C(=O)O)o1 | inconclusive: -40.2% |
| Cc1ccccc1-n1c(SCC(=O)O)nc2sc3c(c2c1=O)CCCC3 | inactive: 31.4% |
| c1ccc2c(c1)Sc1cnccc1N2CC1CO1 (stereo not drawn) | inconclusive: -44% |
| CCOC(=O)c1ccc(NC(=O)c2nc(S(=O)(=O)Cc3ccccc3)ncc2Cl)cc1 | active: -97% and active: -99.1% |
| COc1ccc([C@@H]2CC=C(C(=O)O)CN2S(=O)(=O)c2ccc(C)cc2)cc1OC | active: -64.2% |
| CCOc1ccccc1-n1c(N)c(C(N)=O)sc1=S | active: -62.8% |
| Cc1c(C(=O)N/N=C/C(C)C)[nH]c2c([N+](=O)[O-])cccc12 | inconclusive: -43.1% |
| CC1=C(C(=O)Nc2ccccc2F)C(c2cccs2)C2=C(CCCC2=O)N1 (stereo not drawn) | inconclusive: -55.9% |
| CC/C(=C\C(=O)c1cccnc1)Nc1ccc(C)c(C)c1 | inconclusive: -50.1% |
| Cc1nn(-c2ccccc2)c2nc(N)c(C#N)c(-c3ccc(O)c(O)c3)c12 | active: -62.3% |
| COc1ccc(CNC(=O)c2oc3c(c2C)-c2nn(Cc4ccccc4Cl)cc2CC3)cc1 | inconclusive: -47.2% |
| Cc1cc(N2CCC(C)CC2)nc(SCC(=O)c2ccccc2)n1 | inconclusive: -41.3% |
| CC1CC2(CCCC2)Nc2ccc(F)cc21 (stereo not drawn) | inconclusive: -55.2% |
| CSCCC(NC(=O)c1ccccc1Cl)C(=O)N1CC(C)OC(C)C1 (stereo not drawn) | inconclusive: -52.1% |
| CCOC(=O)C1=C(C)N=c2sc(=Cc3ccc(OCC(=O)O)cc3)c(=O)n2C1c1ccc(SC)cc1 (stereo not drawn) | inactive: -1.63% |
| CC(C)Cc1nc(SCC(=O)N2CCCCC2)c2c(=O)n(C)c(=O)n(C)c2n1 | inconclusive: -50.5% |
| CCN(CC)CCOC(=O)c1ccc(NC(=O)c2nn(-c3ccc(C)cc3)c(=O)c3c2c2ccccc2n3C)cc1 | active: -100% |
